Test results: the supplement of paper PMC10849652
Some of the results follow.

By UniProt entry, the sequences of proteins in these tests, tags left out. Where a name states a change or a piece, a line headed by the entry shows the natural chain unless it says otherwise.
UniProt Q9Y3Q3: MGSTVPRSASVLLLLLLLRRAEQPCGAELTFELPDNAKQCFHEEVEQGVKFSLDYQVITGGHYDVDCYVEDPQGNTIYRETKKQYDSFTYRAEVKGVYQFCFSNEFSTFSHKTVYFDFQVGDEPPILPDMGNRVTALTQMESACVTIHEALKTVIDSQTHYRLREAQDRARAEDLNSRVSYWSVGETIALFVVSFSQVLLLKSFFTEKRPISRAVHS
UniProt Q9NVV0: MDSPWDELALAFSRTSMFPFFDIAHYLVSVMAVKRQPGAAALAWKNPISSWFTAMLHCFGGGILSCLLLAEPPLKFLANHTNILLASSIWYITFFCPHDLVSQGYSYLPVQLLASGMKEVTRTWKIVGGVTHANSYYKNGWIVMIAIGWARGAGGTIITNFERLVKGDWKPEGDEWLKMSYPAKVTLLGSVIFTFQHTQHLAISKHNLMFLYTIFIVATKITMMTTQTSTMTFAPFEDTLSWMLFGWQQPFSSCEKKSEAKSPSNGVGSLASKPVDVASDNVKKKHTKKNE
UniProt Q9H7F4: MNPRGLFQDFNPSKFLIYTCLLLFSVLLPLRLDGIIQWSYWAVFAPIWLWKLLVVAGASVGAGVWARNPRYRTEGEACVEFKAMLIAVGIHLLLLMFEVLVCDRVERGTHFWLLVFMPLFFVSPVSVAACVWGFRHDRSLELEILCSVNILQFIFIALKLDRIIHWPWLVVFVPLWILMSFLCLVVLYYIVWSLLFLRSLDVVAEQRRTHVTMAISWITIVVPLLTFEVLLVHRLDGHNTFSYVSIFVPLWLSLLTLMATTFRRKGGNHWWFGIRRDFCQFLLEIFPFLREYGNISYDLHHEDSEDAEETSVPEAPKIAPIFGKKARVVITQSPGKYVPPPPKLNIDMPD
UniProt Q6ZXV5: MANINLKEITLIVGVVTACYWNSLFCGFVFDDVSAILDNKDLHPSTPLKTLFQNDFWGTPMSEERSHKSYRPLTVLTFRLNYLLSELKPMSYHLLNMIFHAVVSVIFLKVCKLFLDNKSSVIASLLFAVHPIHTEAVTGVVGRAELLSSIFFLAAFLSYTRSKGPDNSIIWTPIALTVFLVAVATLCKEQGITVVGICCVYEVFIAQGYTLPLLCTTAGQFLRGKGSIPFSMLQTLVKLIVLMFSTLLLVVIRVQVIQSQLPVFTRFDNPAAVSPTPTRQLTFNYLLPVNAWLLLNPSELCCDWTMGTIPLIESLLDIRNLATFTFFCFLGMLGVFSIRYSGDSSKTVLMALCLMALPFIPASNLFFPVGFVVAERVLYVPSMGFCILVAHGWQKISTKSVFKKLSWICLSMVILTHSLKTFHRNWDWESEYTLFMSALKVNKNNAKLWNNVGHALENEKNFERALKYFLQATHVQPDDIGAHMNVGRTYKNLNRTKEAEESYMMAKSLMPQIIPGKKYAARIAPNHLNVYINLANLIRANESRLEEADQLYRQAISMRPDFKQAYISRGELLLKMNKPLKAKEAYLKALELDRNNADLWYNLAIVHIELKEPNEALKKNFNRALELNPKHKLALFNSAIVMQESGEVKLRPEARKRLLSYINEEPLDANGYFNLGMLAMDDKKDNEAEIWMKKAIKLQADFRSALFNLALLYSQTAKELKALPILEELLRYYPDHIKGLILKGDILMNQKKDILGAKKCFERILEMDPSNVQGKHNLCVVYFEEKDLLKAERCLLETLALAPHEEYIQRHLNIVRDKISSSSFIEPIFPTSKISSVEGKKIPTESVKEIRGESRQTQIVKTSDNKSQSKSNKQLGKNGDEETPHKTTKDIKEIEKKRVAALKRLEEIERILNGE
UniProt O00220, whole entry, looked up: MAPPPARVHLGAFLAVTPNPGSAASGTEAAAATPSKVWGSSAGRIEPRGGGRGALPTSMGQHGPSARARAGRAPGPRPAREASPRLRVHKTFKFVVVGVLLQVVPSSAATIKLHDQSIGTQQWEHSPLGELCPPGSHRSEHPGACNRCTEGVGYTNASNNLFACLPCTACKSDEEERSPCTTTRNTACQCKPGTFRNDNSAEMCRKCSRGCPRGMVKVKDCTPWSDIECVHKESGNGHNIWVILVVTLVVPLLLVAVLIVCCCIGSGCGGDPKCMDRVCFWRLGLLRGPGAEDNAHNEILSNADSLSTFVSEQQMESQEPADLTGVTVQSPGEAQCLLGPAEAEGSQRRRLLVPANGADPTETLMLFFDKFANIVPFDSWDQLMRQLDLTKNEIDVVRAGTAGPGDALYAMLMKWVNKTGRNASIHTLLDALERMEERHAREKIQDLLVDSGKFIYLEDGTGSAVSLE
UniProt Q9NX00: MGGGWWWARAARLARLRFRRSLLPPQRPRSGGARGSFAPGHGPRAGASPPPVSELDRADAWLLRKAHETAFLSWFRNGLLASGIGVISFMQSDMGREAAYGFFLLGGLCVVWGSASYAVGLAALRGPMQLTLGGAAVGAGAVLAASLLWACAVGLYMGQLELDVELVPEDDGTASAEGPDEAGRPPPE
UniProt Q96HV5: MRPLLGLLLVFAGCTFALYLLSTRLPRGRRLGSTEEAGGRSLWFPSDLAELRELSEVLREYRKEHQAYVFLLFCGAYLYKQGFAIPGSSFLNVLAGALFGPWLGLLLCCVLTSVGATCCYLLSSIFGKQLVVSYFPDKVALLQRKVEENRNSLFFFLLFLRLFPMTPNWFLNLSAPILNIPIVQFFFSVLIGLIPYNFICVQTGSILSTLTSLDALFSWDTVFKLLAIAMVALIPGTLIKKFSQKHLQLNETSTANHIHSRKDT
UniProt Q9NUM4, whole entry, looked up: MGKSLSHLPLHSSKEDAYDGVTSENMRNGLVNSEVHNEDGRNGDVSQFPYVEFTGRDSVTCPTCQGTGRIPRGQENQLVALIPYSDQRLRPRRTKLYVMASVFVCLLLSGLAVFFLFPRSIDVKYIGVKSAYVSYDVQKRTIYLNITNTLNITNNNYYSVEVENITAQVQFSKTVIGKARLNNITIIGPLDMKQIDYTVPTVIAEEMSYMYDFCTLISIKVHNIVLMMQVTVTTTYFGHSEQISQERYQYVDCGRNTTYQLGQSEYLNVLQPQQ
UniProt Q04727: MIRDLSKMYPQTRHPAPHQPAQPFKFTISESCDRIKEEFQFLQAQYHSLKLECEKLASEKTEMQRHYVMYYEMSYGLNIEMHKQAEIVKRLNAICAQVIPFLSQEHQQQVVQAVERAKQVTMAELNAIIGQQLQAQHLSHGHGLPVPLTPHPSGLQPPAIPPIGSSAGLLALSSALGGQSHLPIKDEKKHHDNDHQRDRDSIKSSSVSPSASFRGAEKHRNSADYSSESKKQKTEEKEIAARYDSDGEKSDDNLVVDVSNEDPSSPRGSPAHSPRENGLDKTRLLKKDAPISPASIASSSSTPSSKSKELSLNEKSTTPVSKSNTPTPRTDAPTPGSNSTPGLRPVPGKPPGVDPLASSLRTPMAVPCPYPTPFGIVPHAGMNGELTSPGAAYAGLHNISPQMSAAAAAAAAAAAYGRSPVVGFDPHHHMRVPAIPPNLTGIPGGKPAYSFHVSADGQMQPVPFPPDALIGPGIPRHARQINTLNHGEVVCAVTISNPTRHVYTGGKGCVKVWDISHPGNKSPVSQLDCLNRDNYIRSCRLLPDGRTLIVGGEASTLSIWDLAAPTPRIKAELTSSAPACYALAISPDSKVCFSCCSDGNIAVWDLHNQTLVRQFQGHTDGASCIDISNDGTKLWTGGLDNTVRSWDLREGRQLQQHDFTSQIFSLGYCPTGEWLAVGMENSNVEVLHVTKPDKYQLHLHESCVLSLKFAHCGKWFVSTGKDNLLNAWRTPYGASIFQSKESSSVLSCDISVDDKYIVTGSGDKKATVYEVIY
UniProt Q9NX61: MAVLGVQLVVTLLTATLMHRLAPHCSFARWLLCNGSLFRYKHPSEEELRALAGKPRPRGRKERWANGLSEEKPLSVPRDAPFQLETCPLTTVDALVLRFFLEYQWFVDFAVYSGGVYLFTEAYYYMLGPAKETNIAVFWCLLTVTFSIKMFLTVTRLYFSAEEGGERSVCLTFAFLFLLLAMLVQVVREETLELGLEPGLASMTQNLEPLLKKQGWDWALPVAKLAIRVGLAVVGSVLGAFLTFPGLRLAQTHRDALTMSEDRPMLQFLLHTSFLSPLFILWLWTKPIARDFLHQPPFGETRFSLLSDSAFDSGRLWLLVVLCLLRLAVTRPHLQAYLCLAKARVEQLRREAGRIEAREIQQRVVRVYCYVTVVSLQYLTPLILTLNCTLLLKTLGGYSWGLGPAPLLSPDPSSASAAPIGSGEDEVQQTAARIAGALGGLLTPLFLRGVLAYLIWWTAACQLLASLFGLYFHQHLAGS
UniProt Q4ZIN3: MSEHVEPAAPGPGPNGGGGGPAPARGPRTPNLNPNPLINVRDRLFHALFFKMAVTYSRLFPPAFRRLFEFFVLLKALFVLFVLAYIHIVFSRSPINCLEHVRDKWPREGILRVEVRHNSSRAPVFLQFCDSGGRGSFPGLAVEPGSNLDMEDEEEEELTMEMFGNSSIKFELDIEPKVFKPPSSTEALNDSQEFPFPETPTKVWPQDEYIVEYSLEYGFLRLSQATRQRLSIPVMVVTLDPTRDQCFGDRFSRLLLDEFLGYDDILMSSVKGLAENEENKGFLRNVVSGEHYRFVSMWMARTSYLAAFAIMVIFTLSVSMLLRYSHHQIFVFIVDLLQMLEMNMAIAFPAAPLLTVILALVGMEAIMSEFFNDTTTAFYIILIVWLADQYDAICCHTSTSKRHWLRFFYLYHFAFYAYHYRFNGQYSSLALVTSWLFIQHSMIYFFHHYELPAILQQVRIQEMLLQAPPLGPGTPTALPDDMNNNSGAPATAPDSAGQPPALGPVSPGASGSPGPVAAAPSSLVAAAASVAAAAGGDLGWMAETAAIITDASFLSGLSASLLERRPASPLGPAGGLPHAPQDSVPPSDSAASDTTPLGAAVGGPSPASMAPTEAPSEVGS
UniProt Q5BJF2, whole entry, looked up: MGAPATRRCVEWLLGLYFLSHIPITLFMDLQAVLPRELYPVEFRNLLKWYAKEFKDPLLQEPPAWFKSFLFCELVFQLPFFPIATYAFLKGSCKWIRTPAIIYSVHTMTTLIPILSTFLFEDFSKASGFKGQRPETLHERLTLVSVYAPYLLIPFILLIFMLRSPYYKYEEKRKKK
UniProt P57088: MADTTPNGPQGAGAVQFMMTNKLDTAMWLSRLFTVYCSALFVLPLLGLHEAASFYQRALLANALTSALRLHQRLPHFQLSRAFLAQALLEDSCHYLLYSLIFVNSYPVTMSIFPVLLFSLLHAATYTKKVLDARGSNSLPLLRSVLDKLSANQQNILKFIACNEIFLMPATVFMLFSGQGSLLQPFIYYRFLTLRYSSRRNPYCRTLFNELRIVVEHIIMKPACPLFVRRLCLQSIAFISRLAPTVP
UniProt Q9NZR1: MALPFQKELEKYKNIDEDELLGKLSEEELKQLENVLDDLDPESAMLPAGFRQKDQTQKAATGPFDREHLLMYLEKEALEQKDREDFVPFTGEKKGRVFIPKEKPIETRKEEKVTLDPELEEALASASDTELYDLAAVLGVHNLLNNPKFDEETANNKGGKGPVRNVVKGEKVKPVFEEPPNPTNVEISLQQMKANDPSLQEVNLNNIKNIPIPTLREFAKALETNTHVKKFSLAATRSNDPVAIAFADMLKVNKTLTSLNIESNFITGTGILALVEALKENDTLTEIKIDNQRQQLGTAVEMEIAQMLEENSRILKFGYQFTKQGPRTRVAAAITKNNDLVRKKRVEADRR
UniProt Q9BTX3: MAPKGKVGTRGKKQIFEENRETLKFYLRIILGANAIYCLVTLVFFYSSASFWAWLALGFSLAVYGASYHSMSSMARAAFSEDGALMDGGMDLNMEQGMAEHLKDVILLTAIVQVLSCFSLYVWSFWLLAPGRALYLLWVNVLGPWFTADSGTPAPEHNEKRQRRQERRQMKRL
UniProt Q9Y2S6, whole entry, looked up: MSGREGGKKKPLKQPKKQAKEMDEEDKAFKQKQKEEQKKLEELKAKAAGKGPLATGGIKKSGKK
UniProt O14763, whole entry, looked up: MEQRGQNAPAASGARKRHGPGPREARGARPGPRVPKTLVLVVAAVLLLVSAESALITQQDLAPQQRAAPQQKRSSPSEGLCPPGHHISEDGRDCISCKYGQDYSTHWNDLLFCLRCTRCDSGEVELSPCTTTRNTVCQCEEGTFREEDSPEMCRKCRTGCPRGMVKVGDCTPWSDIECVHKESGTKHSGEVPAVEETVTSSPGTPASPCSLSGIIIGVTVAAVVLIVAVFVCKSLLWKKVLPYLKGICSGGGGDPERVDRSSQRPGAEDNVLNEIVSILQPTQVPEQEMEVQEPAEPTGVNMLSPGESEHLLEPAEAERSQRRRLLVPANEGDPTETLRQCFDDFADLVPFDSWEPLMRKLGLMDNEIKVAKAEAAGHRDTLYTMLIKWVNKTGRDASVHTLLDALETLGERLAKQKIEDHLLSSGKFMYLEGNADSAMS
UniProt Q6PI78: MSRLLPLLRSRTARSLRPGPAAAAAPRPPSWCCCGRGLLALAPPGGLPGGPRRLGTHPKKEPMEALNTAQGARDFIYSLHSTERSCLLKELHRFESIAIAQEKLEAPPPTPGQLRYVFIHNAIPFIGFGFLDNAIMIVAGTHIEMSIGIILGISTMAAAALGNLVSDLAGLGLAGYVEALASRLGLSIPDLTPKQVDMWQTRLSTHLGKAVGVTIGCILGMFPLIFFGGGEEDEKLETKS

Tests used:
Experiment in all cases: log2 fold change, soluble protein after heating vs DMSO (PISA); higher = thermal stabilisation; K562 cells, 10 uM, 30 min; active = over 0.2 and 3.5 SD of the protein, either way, in both replicates (recomputed)
[1] = compound: NC(=O)Nc1cc(-c2cccc(F)c2)sc1C(=O)N[C@H]1CCCNC1
How it was run: (§1)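 K562 cells (2×10^6 cells/mL) were treated with 10 μM compound for 30 min, and aliquots were heated for 3 min over 48°C-58°C. Pooled aliquots were extracted in PBS with 0.5% NP-40 at 4°C, and the supernatant after 21,000xg for 90 min was measured by TMTpro 16plex LC-MS/MS with channel sums equalised. Reported thermal stability, relative to control samples and from duplicates, is a log2 fold change.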

[2] = compound: NC(=O)c1cnc(N[C@@H]2CCCC[C@@H]2N)nc1Nc1cccc(-n2nccn2)c1
How it was run: as §1

[3] = compound: NC1(c2ccc(-c3nc4ccn5c(=O)[nH]nc5c4cc3-c3ccccc3)cc2)CCC1
How it was run: as §1

[4] = compound: NCC(=O)Nc1ccc(-n2nc(C(F)(F)F)cc2-c2ccc3c(ccc4ccccc43)c2)cc1
How it was run: as §1

entinostat = compound: Nc1ccccc1NC(=O)c1ccc(CNC(=O)OCc2cccnc2)cc1 [entinostat]
How it was run: as §1

vorinostat = compound: O=C(CCCCCCC(=O)Nc1ccccc1)NO [vorinostat]
How it was run: as §1

citarinostat = compound: O=C(CCCCCCNC(=O)c1cnc(N(c2ccccc2)c2ccccc2Cl)nc1)NO [citarinostat]
How it was run: as §1

silmitasertib = compound: O=C(O)c1ccc2c(c1)nc(Nc1cccc(Cl)c1)c1ccncc12 [silmitasertib]
How it was run: as §1

[5] = compound: O=C1NC(=O)C(c2cnc3ccccn23)=C1c1cn2c3c(cc(F)cc13)CN(C(=O)N1CCCCC1)CC2
How it was run: as §1

[6] = compound: c1cc(OCCN2CCCCC2)cc(-c2n[nH]c3ccc(-c4nnc[nH]4)cc23)c1
How it was run: as §1

Measured: log2 fold change

TMED3 (UniProt Q9Y3Q3)
inactive: [1] -0.002 | [2] -0.054 | [3] -0.123 | [4] -0.078 | entinostat 0.055 | vorinostat 0.051 | citarinostat 0.015 | silmitasertib -0.021 | [5] -0.109 | [6] 0.05

TMEM38B (UniProt Q9NVV0)
inactive: [1] -0.073 | [2] -0.074 | [3] -0.001 | [4] -0.151 | entinostat -0.041 | vorinostat -0.026 | citarinostat 0.033 | silmitasertib 0.028 | [5] -0.011 | [6] -0.048

TMEM185B (UniProt Q9H7F4)
inactive: [1] -0.041 | [2] -0.038 | [3] -0.04 | [4] -0.026 | entinostat 0.04 | vorinostat -0.029 | citarinostat 0.147 | silmitasertib 0.047 | [5] -0.017 | [6] 0.033

TMTC3 (UniProt Q6ZXV5)
inactive: [1] -0.028 | [2] -0.113 | [3] -0.135 | [4] -0.097 | entinostat -0.046 | vorinostat 0.025 | citarinostat 0.005 | silmitasertib 0.025 | [5] -0.037 | [6] -0.089

TMEM222 (UniProt Q9H0R3)
inactive: [1] -0.011 | [2] 0.181 | [3] -0.102 | [4] -0.047 | entinostat -0.027 | vorinostat -0.001 | citarinostat -0.043 | silmitasertib 0.022 | [5] 0.015 | [6] -0.067

TMC1 (UniProt Q8TDI8)
inactive: [1] -0.089 | [2] -0.195 | [3] -0.325 | [4] -0.179 | entinostat 0.017 | vorinostat 0.026 | citarinostat -0.078 | silmitasertib 0.214 | [5] 0.019 | [6] -0.377

TMEM209 (UniProt Q96SK2)
inactive: [1] 0.01 | [2] 0 | [3] -0.012 | [4] -0.048 | entinostat 0.037 | vorinostat 0.03 | citarinostat 0.004 | silmitasertib 0.017 | [5] 0.038 | [6] -0.05

TNFRSF10A (UniProt O00220)
inactive: [1] -0.097 | [2] -0.019 | [3] 0.06 | [4] 0.029 | entinostat -0.202 | vorinostat -0.178 | citarinostat -0.011 | silmitasertib 0.028 | [5] -0.069 | [6] -0.07

TMEM160 (UniProt Q9NX00)
inactive: [1] 0.042 | [2] 0.017 | [3] 0.143 | [4] -0.112 | entinostat -0.058 | vorinostat 0.06 | citarinostat 0.013 | silmitasertib -0.041 | [5] 0.045 | [6] -0.177

TMX3 (UniProt Q96JJ7)
inactive: [1] 0.173 | [2] -0.01 | [3] -0.035 | [4] -0.016 | entinostat 0.061 | vorinostat 0.027 | citarinostat 0.01 | silmitasertib 0.02 | [5] -0.021 | [6] -0.037

TMEM41A (UniProt Q96HV5)
inactive: [1] -0.005 | [2] -0.053 | [3] 0.002 | [4] -0.066 | entinostat -0.027 | vorinostat 0.09 | citarinostat 0.04 | silmitasertib -0.015 | [5] -0.018 | [6] -0.059

TMEM106B (UniProt Q9NUM4)
inactive: [1] -0.042 | [2] -0.038 | [3] -0.056 | [4] -0.016 | entinostat 0.008 | vorinostat -0.023 | citarinostat 0.022 | silmitasertib 0.034 | [5] 0 | [6] 0.046

TLE4 isoform 3 (UniProt Q04727)
inactive: [1] 0.018 | [2] -0.049 | [3] -0.043 | [4] -0.02 | entinostat 0.021 | vorinostat -0.006 | citarinostat 0.005 | silmitasertib -0.031 | [5] -0.035 | [6] -0.048

TMEM87A (UniProt Q8NBN3)
inactive: [1] -0.068 | [2] 0.014 | [3] -0.063 | [4] -0.033 | entinostat -0.007 | vorinostat -0.01 | citarinostat 0.016 | silmitasertib 0.04 | [5] -0.017 | [6] -0.014

TMEM161A (UniProt Q9NX61)
inactive: [1] 0.043 | [2] 0.012 | [3] -0.132 | [4] -0.101 | entinostat 0.049 | vorinostat 0.006 | citarinostat 0.083 | silmitasertib -0.023 | [5] -0.009 | [6] -0.098

TMEM11 (UniProt P17152)
inactive: [1] -0.038 | [2] 0.022 | [3] -0.096 | [4] -0.026 | entinostat -0.012 | vorinostat -0.007 | citarinostat -0.059 | silmitasertib 0.018 | [5] -0.02 | [6] -0.035

TMEM259 (UniProt Q4ZIN3)
inactive: [1] -0.014 | [2] -0.046 | [3] -0.035 | [4] -0.018 | entinostat 0.009 | vorinostat 0.047 | citarinostat 0.021 | silmitasertib 0.05 | [5] 0.031 | [6] -0.005

TMEM70 (UniProt Q9BUB7)
inactive: [1] -0.058 | [2] -0.125 | [3] -0.162 | [4] -0.137 | entinostat 0.005 | vorinostat 0.031 | citarinostat 0.047 | silmitasertib 0.019 | [5] -0.045 | [6] -0.003

TMEM189 (UniProt A5PLL7)
inactive: [1] 0.133 | [2] 0.109 | [3] -0.097 | [4] 0.248 | entinostat 0.136 | vorinostat 0.052 | citarinostat 0.114 | silmitasertib 0.022 | [5] -0.235 | [6] -0.03

TMEM97 (UniProt Q5BJF2)
inactive: [1] -0.058 | [2] -0.02 | [3] -0.017 | [4] 0.001 | entinostat -0.008 | vorinostat -0.068 | citarinostat -0.054 | silmitasertib 0.032 | [5] 0.003 | [6] 0.026

TMEM33 (UniProt P57088)
inactive: [1] -0.005 | [2] 0.005 | [3] -0.022 | [4] -0.019 | entinostat 0.002 | vorinostat -0.006 | citarinostat 0.069 | silmitasertib 0.013 | [5] 0.01 | [6] -0.085

TMPPE (UniProt Q6ZT21)
inactive: [1] -0.009 | [2] -0.029 | [3] -0.022 | [4] 0.027 | entinostat -0.032 | vorinostat 0.08 | citarinostat -0.014 | silmitasertib 0.037 | [5] -0.021 | [6] -0.033

TMOD2 (UniProt Q9NZR1)
inactive: [1] 0.05 | [2] 0.052 | [3] 0.138 | [4] 0.096 | entinostat 0.067 | vorinostat 0.037 | citarinostat 0.056 | silmitasertib -0.008 | [5] 0.003 | [6] 0.199

TMEM208 (UniProt Q9BTX3)
inactive: [1] 0.038 | [2] -0.133 | [3] -0.28 | [4] -0.181 | entinostat -0.01 | vorinostat 0.187 | citarinostat 0.036 | silmitasertib 0.048 | [5] 0.02 | [6] -0.09

TMX4 (UniProt Q9H1E5)
inactive: [1] -0.055 | [2] 0.077 | [3] -0.043 | [4] 0.004 | entinostat -0.042 | vorinostat -0.08 | citarinostat -0.027 | silmitasertib 0.034 | [5] 0.015 | [6] -0.058

2 successive records from above:
TMEM208 (UniProt Q9BTX3)
inactive: [1] 0.038 | [2] -0.133 | [3] -0.28 | [4] -0.181 | entinostat -0.01 | vorinostat 0.187 | citarinostat 0.036 | silmitasertib 0.048 | [5] 0.02 | [6] -0.09

TMX4 (UniProt Q9H1E5)
inactive: [1] -0.055 | [2] 0.077 | [3] -0.043 | [4] 0.004 | entinostat -0.042 | vorinostat -0.08 | citarinostat -0.027 | silmitasertib 0.034 | [5] 0.015 | [6] -0.058

(next part)

TMA7 (UniProt Q9Y2S6)
inactive: [1] -0.042 | [2] -0.035 | [3] 0.023 | [4] 0.021 | entinostat 0 | vorinostat -0.085 | citarinostat -0.049 | silmitasertib -0.027 | [5] -0.029 | [6] 0.007

TNFRSF10B (UniProt O14763)
inactive: [1] -0.039 | [2] -0.078 | [3] 0.034 | [4] -0.086 | entinostat -0.041 | vorinostat -0.081 | citarinostat 0.044 | silmitasertib -0.052 | [5] 0.049 | [6] -0.002

TMPO (UniProt P42167)
inactive: [1] -0.016 | [2] 0.003 | [3] 0.014 | [4] -0.01 | entinostat -0.005 | vorinostat 0.029 | citarinostat -0.007 | silmitasertib 0.064 | [5] 0.007 | [6] -0.013

TMEM65 (UniProt Q6PI78)
inactive: [1] -0.016 | [2] 0.043 | [3] 0.006 | [4] 0.009 | entinostat -0.119 | vorinostat -0.032 | citarinostat -0.056 | silmitasertib 0.066 | [5] -0.134 | [6] -0.075
